Protein sequences, listed by entry. Tags and fused reporters are not part of them. Lines headed by an entry give the natural chain unless they say otherwise; changes in a name come on top.
UniProt Q3KK31: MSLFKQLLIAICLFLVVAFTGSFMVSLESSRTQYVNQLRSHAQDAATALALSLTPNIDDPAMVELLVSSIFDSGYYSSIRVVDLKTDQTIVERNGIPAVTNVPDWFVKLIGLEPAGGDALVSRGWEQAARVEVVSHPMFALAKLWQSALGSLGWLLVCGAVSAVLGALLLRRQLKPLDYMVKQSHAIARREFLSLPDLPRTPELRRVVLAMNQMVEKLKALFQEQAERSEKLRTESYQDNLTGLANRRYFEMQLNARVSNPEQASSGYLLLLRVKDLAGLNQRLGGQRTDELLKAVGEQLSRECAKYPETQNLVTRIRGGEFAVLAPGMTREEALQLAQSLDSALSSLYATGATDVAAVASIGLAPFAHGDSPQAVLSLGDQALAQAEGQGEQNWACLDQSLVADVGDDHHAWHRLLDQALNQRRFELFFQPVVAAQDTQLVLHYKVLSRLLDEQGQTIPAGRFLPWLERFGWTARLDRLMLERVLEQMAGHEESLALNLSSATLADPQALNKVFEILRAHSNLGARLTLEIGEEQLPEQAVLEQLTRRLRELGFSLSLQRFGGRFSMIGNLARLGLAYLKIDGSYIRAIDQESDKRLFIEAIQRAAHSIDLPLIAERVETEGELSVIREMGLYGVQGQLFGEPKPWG

According to paper PMC5231407:

Key:
[1] = target: LapD^TMcys-A602C–sfGFP (Pseudomonas fluorescens Pf0-1) (UniProt Q3KK31); experiment: cross-linking; disulfide crosslinking with Cu(Phen)2 in fused E. coli membrane fractions (0.05% Triton X-100, sonication, washed) from cells separately expressing LapD–sfGFP and non-fluorescent LapD; 50 μM LapG and 100 μM c-di-GMP
[2] = target: LapD^TMcys-A602C–sfGFP (Pseudomonas fluorescens Pf0-1) (UniProt Q3KK31); experiment: cross-linking; disulfide crosslinking with Cu(Phen)2 of mixed LapD–sfGFP and non-fluorescent LapD variants, detergent-solubilized (~1 μM), after incubation with c-di-GMP and LapG; SDS-PAGE, in-gel fluorescence

Substance | binding [1] | binding [2]
LapD^TMcys-A602C lacking sfGFP (non-fluorescent) (from UniProt Q3KK31) (receptor) | binds | binds
LapD^TMcys lacking sfGFP (non-fluorescent; C304A, C397S) (from UniProt Q3KK31) (receptor) |  | binds

These are yes or no findings as the source states them, for the method shown. Binding seen in cells or lysates may run through a third protein. A result given as binding can be weak or reduced; the word gives no strength.
